The results in this text go back to PMC7948397.

The chains behind the UniProt entries cited, without tags or fusion partners. Where a name states a change or a piece, a line headed by the entry shows the natural chain unless it says otherwise.
UniProt P17927: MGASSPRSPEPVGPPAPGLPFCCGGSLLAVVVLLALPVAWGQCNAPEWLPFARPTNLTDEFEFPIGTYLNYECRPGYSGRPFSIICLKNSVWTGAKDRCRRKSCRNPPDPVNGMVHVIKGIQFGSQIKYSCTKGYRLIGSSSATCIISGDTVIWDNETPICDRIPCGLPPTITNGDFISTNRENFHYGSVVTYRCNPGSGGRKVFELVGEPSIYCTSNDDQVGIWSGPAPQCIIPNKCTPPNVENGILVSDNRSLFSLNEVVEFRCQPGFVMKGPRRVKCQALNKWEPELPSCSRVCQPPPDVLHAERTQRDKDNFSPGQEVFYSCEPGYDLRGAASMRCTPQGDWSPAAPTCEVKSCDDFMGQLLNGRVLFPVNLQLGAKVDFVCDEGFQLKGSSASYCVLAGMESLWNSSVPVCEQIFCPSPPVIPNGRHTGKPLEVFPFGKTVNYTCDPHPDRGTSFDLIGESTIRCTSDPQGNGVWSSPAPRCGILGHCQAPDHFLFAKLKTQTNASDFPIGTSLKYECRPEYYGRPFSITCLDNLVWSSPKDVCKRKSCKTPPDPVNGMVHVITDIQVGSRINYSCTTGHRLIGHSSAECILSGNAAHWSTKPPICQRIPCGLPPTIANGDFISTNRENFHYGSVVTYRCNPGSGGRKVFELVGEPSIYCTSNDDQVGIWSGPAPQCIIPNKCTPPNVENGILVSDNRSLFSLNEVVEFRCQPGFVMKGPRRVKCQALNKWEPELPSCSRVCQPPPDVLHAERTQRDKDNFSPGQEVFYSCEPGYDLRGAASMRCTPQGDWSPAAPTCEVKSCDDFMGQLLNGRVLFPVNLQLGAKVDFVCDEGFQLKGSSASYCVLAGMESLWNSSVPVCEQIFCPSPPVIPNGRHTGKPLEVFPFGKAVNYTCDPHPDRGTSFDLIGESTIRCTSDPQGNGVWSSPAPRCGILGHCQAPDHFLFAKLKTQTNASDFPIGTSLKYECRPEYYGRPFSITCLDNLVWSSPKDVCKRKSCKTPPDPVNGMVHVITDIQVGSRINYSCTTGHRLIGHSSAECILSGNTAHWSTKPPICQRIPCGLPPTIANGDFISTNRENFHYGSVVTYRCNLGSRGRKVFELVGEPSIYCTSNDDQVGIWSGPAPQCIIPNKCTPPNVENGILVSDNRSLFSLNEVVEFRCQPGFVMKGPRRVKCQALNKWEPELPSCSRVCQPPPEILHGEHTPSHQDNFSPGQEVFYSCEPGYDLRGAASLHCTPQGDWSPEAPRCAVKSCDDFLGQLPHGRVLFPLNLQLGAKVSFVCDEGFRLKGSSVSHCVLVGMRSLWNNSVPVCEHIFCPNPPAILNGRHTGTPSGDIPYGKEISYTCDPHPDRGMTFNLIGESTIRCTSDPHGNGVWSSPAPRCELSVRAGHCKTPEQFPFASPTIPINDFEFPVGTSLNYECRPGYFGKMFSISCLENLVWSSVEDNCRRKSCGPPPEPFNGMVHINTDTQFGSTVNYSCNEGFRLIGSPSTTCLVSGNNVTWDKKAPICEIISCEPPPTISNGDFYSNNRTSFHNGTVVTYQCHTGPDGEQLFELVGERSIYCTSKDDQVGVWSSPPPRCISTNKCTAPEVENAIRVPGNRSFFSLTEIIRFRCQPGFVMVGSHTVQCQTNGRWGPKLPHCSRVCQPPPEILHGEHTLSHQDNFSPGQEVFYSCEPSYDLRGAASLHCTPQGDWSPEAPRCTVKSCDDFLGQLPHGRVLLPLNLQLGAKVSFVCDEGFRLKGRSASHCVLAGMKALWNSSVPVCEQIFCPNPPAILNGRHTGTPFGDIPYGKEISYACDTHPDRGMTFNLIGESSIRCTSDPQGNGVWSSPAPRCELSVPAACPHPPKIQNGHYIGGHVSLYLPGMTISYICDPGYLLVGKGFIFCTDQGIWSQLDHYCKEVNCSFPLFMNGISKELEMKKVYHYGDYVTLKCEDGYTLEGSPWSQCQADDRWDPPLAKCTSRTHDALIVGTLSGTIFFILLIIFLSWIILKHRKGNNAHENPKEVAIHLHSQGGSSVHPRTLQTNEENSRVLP

These are yes or no findings as the source states them, for the method shown.

Test [1] has as its target HuCR1(1971), soluble full-length extracellular domain of human complement receptor 1 (LHR-A, -B, -C and -D) (human) (UniProt P17927). Description: SEC-MALS; about 20 ug protein on Superdex 200 Increase 5 x 150 mm GL, Dulbecco's PBS, 0.15 ml/min, ambient temperature; both purified. Background: In gel filtration, larger molecules generally elute earlier.
Test [2] addresses HuCR1(1392)/CSL040, soluble human complement receptor 1 truncated at amino acid 1392 (LHR-A, LHR-B and LHR-C) (human) (UniProt P17927). The description is as above.

Turning to “HuCR1(1971), soluble full-length extracellular domain of human complement receptor 1 (LHR-A, -B, -C and -D) (from UniProt P17927 42-1971)”, the binding entry in test [1] was “no binding”.
For “HuCR1(1392)/CSL040, soluble human complement receptor 1 truncated at amino acid 1392 (LHR-A, LHR-B and LHR-C) (from UniProt P17927 42-1392)”, the binding entry in test [2] is “no binding”.
